US11718593B2, “2,5-aryl-thiazole analogs for the treatment of neurodegenerative diseases” (Southern Research Institute, priority 2018, dated 2023)
Some results were stated once for a whole list of compounds, not compound by compound.

Experiment: Microsomal stability studies
Type: in vitro ADME

SMILES | stability in microsomal stability studies [min]
O=C(/C=C\Nc1ccccc1Br)c1ccc2c(c1)OCO2 [Compound 1, (Z)-1-(Benzo[d][1,3]dioxol-5-yl)-3-((2-bromophenyl)amino)Prop-2-en-1-one] | ≤ 20
Cc1cccnc1Nc1nc(-c2ccccn2)cs1 [Compound 2, N-(3-Methylpyridin-2-yl)-4-(pyridin-2-yl)thiazol-2-amine] | ≤ 20
